Assay results as given in patent US20160115201, “PEPTIDES BINDING TO PARALLEL-STRANDED G-QUADRUPLEXES” (NANYANG TECHNOLOGICAL UNIVERSITY, published 2016).
For part of these data: Negatives hold for the conditions tested. For part of these data: Tags and fusion partners may be left off the protein sequences shown. For part of these data: The exact form of at least one protein or probe is not confirmed.

What was measured:
Test in all cases: EMSA
[1] = target: T1, Rhau55 (N-terminal fragment of RHAU/DHX36) (UniProt Q9H2U1); conditions: estimated, dilute K+ solution, purified recombinant protein, protein details: expressed in E. coli, label: FAM or TAMRA, folded or branched DNA
T1 sequence: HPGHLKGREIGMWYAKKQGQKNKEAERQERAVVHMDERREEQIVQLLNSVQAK

Rhau18 (Rhau18sm) = Rhau18 (Rhau18sm) (UniProt Q9H2U1); conditions: hybrid 3+1; label: FAM or TAMRA; folded or branched DNA
Rhau14 = conditions: 70 mM KCl, 20 mM phosphate pH 6.8; synthetic protein; folded or branched DNA
Rhau16 = conditions: synthetic protein; protein details: synthetic 16-residue peptide, residues not shown; folded or branched DNA

Sequence “AGGGCTAGGGCTAGGGCTAGGG [Htelo4 in dilute condition]” has a Kd ([1]; printed Heto14) greater than 10 µM.
With “GGGTTAGGGTTAGGGTTAGGGT [Htelo3 in dilute condition]” the Kd [1] was greater than 10 µM.
“TAGGGTTAGGGTTAGGGTTAGGG [Htelo1 in dilute condition]”: no binding (Rhau18 (Rhau18sm)).
Work on “TAGGGTTAGGGTTAGGGTTAGGGTT [Htelo2 in dilute condition]” yielded a Kd [1] greater than 10 µM.
TTGGGTGGGTGGGTGGGT [T95_2T]: no binding (Rhau14); binds (Rhau16).
